# Where a name gives a salt, the structure may show the parent alone. The list shows a part of the results. Repeats are few or missing, and single values can be far off.
# System: Echinococcus multilocularis metacestodes
# Assay: vesicle damage (PGI release) relative to positive control DB1127 at 20 µM, DMSO subtracted; higher = more parasite damage
# Details: treatment time 5 days
row,Structure (SMILES),vesicle damage [%]
1,Cc1cc(C(C)(C)C)c(O)c(C)c1CC1=NCCN1 [Oxymetazoline hcl],-1.14
2,NC(=O)CC[C@H](N)C(=O)O [L-Glutamine],-11.6
3,Nc1cccc2c1CN(C1CCC(=O)NC1=O)C2=O (centres undefined) [Lenalidomide],5.6
4,Nc1ccn([C@H]2CC[C@@H](CO)O2)c(=O)n1 [Zalcitabine],-11.4
5,Nc1[nH]cnc2ncnc1-2 [Adenine],1.74
6,Cn1c(=O)c2[nH]cnc2n(C)c1=O [Aminophylline],-2.47
7,COc1ccccc1OCC(O)CN1CCN(CC(=O)Nc2c(C)cccc2C)CC1 (centres undefined) [Ranolazine],-6.2
8,Nc1ccc(S(N)(=O)=O)cc1 [Sulfanilamide],2.93
9,C[C@]12C=CC(=O)C=C1CC[C@@H]1[C@@H]2[C@@H](O)C[C@@]2(C)[C@H]1CC[C@]2(O)C(=O)CO [Prednisolone],-13.3
10,O=C(CCCCCCC(=O)Nc1ccccc1)NO [Vorinostat],-3.84
11,CC1=C(CC(=O)O)c2cc(F)ccc2/C1=C\c1ccc([S+](C)[O-])cc1 (centres undefined) [Sulindac],0.946
12,COC[C@@H](c1ccc(C(F)(F)F)cc1)N1CCN(C2(C)CCN(C(=O)c3c(C)ncnc3C)CC2)C[C@@H]1C [Vicriviroc Malate],-0.346
13,CC[C@@]1(O)C(=O)OCc2c1cc1n(c2=O)Cc2cc3c(CN(C)C)c(O)ccc3nc2-1 [Topotecan Hydrochloride],1.75
14,C[C@H]1O[C@H](O[C@H]2[C@H](O)[C@@H](O)[C@@H](O[C@H]3[C@H](O)[C@@H](O)C(O)O[C@@H]3CO)O[C@@H]2CO)[C@H](O)[C@@H](O)[C@@H]1N[C@H]1C=C(CO)[C@@H](O)[C@H](O)[C@H]1O (some centres undefined) [Acarbose],1.45
15,Cc1cnc(C(=O)O)c[n+]1[O-] [Acipimox],-14.9
16,CO[C@H]1C[C@@H]2CC[C@@H](C)[C@@](O)(O2)C(=O)C(=O)N2CCCC[C@H]2C(=O)O[C@H]([C@H](C)C[C@@H]2CC[C@@H](O)[C@H](OC)C2)CC(=O)[C@H](C)/C=C(\C)[C@@H](O)[C@@H](OC)C(=O)[C@H](C)C[C@H](C)/C=C/C=C/C=C/1C [Rapamycin],-4.13
17,CC(C)[C@H]1CC[C@H](C(=O)N[C@H](Cc2ccccc2)C(=O)O)CC1 [Nateglinide],5.31
18,Clc1cccc(Cl)c1NC1=NCCN1 [Clonidine hydrochloride],0.97
19,Clc1ccc(COC(Cn2ccnc2)c2ccc(Cl)cc2Cl)cc1 (centres undefined) [Econazole nitrate],59.7
20,CN(C)CCc1c[nH]c2ccc(Cn3cncn3)cc12 [Rizatriptan Benzoate],-3.16

# Quoted at random: 2 compounds from above.
row,Structure (SMILES),vesicle damage [%]
16,CO[C@H]1C[C@@H]2CC[C@@H](C)[C@@](O)(O2)C(=O)C(=O)N2CCCC[C@H]2C(=O)O[C@H]([C@H](C)C[C@@H]2CC[C@@H](O)[C@H](OC)C2)CC(=O)[C@H](C)/C=C(\C)[C@@H](O)[C@@H](OC)C(=O)[C@H](C)C[C@H](C)/C=C/C=C/C=C/1C [Rapamycin],-4.13
3,Nc1cccc2c1CN(C1CCC(=O)NC1=O)C2=O (centres undefined) [Lenalidomide],5.6

# (more compounds)

row,Structure (SMILES),vesicle damage [%]
1,NC(=O)c1cn(Cc2c(F)cccc2F)nn1 [Rufinamide],-1.69
2,Nc1nc(=O)c2c([nH]1)NCC(CNc1ccc(C(=O)N[C@@H](CCC(=O)O)C(=O)O)cc1)N2C=O (some centres undefined) [Leucovorin Calcium],-0.019
3,CCC1(c2ccccc2)C(=O)NCNC1=O [Primidone],-11
4,COc1cc(C(C)=O)ccc1OCCCN1CCC(c2noc3cc(F)ccc23)CC1 [Iloperidone],-8.74
5,COC(=O)[C@H](c1ccccc1Cl)N1CCc2sccc2C1 [Clopidogrel bisulfate],-7.77
6,CC1Cc2ccccc2N1NC(=O)c1ccc(Cl)c(S(N)(=O)=O)c1 (centres undefined) [Indapamide],-11.6
7,OCCOCCN1CCN(C2=Nc3ccccc3Sc3ccccc32)CC1 [Quetiapine fumarate],-8.85
8,Nc1ccn([C@@H]2CS[C@H](CO)O2)c(=O)n1 [Lamivudine],-0.661
9,CC(=O)O[C@H]1CC[C@@]2(C)C(=CC[C@@H]3[C@@H]2CC[C@]2(C)C(c4cccnc4)=CC[C@@H]32)C1 [Abiraterone Acetate],3.44
10,Cc1ccc(Nc2nccc(N(C)c3ccc4c(C)n(C)nc4c3)n2)cc1S(N)(=O)=O [Pazopanib Hydrochloride],-0.455
11,Cc1ccc(-c2cc(C(F)(F)F)nn2-c2ccc(S(N)(=O)=O)cc2)cc1 [Celecoxib],33.2
12,Nc1ncnc2c1ncn2[C@@H]1O[C@H](CO)[C@@H](O)[C@@H]1O [Vidarabine],0
13,CC(=O)OCC(=O)[C@@]1(O)CC[C@H]2[C@@H]3CCC4=CC(=O)CC[C@]4(C)[C@H]3C(=O)C[C@@]21C [Cortisone acetate],3.49
14,O=P(O)(O)C(O)(Cc1cccnc1)P(=O)(O)O [Risedronate sodium],-4.26
15,Clc1ccc(COC(Cn2ccnc2)c2ccc(Cl)cc2Cl)c(Cl)c1 (centres undefined) [Miconazole nitrate],0.662
16,C#C[C@]1(O)CC[C@H]2[C@@H]3CCC4=CC(=O)CC[C@@H]4[C@H]3CC[C@@]21CC [Levonorgestrel],-10.7
17,COc1cc2ncnc(Nc3ccc(F)c(Cl)c3)c2cc1OCCCN1CCOCC1 [Gefitinib],-3.07
18,CCN(CC)CC(=O)Nc1c(C)cccc1C [Lidocaine],-1.43
19,N[C@@H](Cc1ccc(O)c(O)c1)C(=O)O [levodopa],-12.2

# Reference: the supplement of paper PMC4256282, “Profound Activity of the Anti-cancer Drug Bortezomib against Echinococcus multilocularis Metacestodes Identifies the Proteasome as a Novel Drug Target for Cestodes” (PLoS Neglected Tropical Diseases, 2014)
